Experimental data from patent US20040248234A1, “Sensitive and selective in vitro assay for the detection of reactive drug intermediates” (Pfizer Inc, priority 2003, published 2004).
Some entries share one result that the patent states for a list of compounds.

Test system: human liver microsomal (HL-mix-13)
Conditions: 10 μM substrate, 1 mM GSH-EE, 0.5 μM P450, HPLC/SRM

## Felbamate
  response in the assay (detected as being conjugated by GSH-EE following microsomal incubation): positive (A response in the assay was deemed positive if there were no co-eluting species observed in control (no NADPH-generating components) samples and analyte peak signal to noise ratio was >10)
